Values from PubChem BioAssay AID1259405 (NCATS, 2018).

Purpose: 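Knock-downs that lift recombinant protein yield in hamster ovary cells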 (primary screen)
System: Chinese hamster CHO-K1 ovary cells with stable secreted eGFP expression
Knock-down reagent: single siRNA against mouse genes, 0.8 pmol siRNA per well (2 µl of 400 nM stock)
Time to read-out: 3 days
Read-out: 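Percent of the per-plate non-targeting control median for intracellular GFP per well by laser scanning cytometry and for cell viability by ATP luminescence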
Reading the numbers: GFP, % of control: higher = more GFP per well, higher productivity; viability (ATP), % of control: higher = more viable cells (more ATP)
Hit rule: 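a knock-down is called active if GFP reaches 120% or more of non-targeting control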
The deposit covers about 50,000 reagents; this is a random part of them. About 4,000 of them (8%) count as active. 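Mouse siRNA library applied to hamster cells; one well for each siRNA.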 The numbers tell different reagents against one gene apart. No sequences are given here.

Target gene | reagent | GFP, % of control | viability (ATP), % of control | outcome
Ndufc1 (NADH:ubiquinone oxidoreductase subunit C1) | 1 | 116 | 95.3 | inactive
Ndufc1 (NADH:ubiquinone oxidoreductase subunit C1) | 2 | 159 | 55.7 | active
Ndufc1 (NADH:ubiquinone oxidoreductase subunit C1) | 3 | 104 | 71 | inactive
Rbms1 (RNA binding motif, single stranded interacting protein 1) | 1 | 108 | 69.8 | inactive
Rbms1 (RNA binding motif, single stranded interacting protein 1) | 2 | 71.4 | 67.8 | inactive
Rbms1 (RNA binding motif, single stranded interacting protein 1) | 3 | 42.9 | 65.1 | inactive
Arhgap30 (Rho GTPase activating protein 30) | 1 | 62.9 | 99 | inactive
Arhgap30 (Rho GTPase activating protein 30) | 2 | 70.5 | 61 | inactive
Arhgap30 (Rho GTPase activating protein 30) | 3 | 30.2 | 37.5 | inactive
Mast1 (microtubule associated serine/threonine kinase 1) | 1 | 89.5 | 84.7 | inactive
Gm5087 (predicted gene 5087) | 1 | 82.9 | 97.3 | inactive
Gm5087 (predicted gene 5087) | 2 | 95.8 | 86.3 | inactive
Gm5087 (predicted gene 5087) | 3 | 83.3 | 116 | inactive
Pof1b (premature ovarian failure 1B) | 1 | 71.6 | 46 | inactive
Pof1b (premature ovarian failure 1B) | 2 | 81.2 | 68.6 | inactive
Pof1b (premature ovarian failure 1B) | 3 | 65 | 110 | inactive
Ezh1 (enhancer of zeste 1 polycomb repressive complex 2 subunit) | 1 | 69.8 | 82 | inactive
Ezh1 (enhancer of zeste 1 polycomb repressive complex 2 subunit) | 2 | 82.8 | 60.4 | inactive
Ezh1 (enhancer of zeste 1 polycomb repressive complex 2 subunit) | 3 | 59.8 | 79.6 | inactive
Gimap3 (GTPase, IMAP family member 3) | 1 | 62.6 | 81.2 | inactive
Gimap3 (GTPase, IMAP family member 3) | 2 | 33.3 | 61.2 | inactive
Gimap3 (GTPase, IMAP family member 3) | 3 | 33.9 | 32.4 | inactive
Ccdc127 (coiled-coil domain containing 127) | 1 | 92.6 | 104 | inactive
Ccdc127 (coiled-coil domain containing 127) | 2 | 83.6 | 75.4 | inactive
Ccdc127 (coiled-coil domain containing 127) | 3 | 48.1 | 102 | inactive
F730035P03Rik (RIKEN cDNA F730035P03 gene) | 1 | 34.8 | 46.2 | inactive
F730035P03Rik (RIKEN cDNA F730035P03 gene) | 2 | 80.1 | 94.8 | inactive
F730035P03Rik (RIKEN cDNA F730035P03 gene) | 3 | 97.4 | 98.4 | inactive
Ppp2ca | 1 | 124 | 146 | active
Ppp2ca | 2 | 95.5 | 77 | inactive
Aoc1l2 (amine oxidase copper containing 1-like 2) | 1 | 112 | 64.1 | inactive
Aoc1l2 (amine oxidase copper containing 1-like 2) | 2 | 82.8 | 67.6 | inactive
Aoc1l2 (amine oxidase copper containing 1-like 2) | 3 | 62.3 | 78 | inactive
Slc35b1 | 1 | 81.7 | 108 | inactive
Slc35b1 | 2 | 92.6 | 95.1 | inactive
Slc35b1 | 3 | 109 | 131 | inactive
Rap1gds1 (RAP1, GTP-GDP dissociation stimulator 1) | 1 | 94.9 | 87 | inactive
Rap1gds1 (RAP1, GTP-GDP dissociation stimulator 1) | 2 | 80.9 | 74.9 | inactive
Rap1gds1 (RAP1, GTP-GDP dissociation stimulator 1) | 3 | 57.5 | 58.1 | inactive
Mbl1 (mannose-binding lectin (protein A) 1) | 1 | 130 | 126 | active
Mbl1 (mannose-binding lectin (protein A) 1) | 2 | 92.1 | 48.3 | inactive
Nt5c3 (5'-nucleotidase, cytosolic III) | 1 | 85.4 | 55.4 | inactive
Nt5c3 (5'-nucleotidase, cytosolic III) | 2 | 73.5 | 86.7 | inactive
Nt5c3 (5'-nucleotidase, cytosolic III) | 3 | 73 | 56.8 | inactive
Impa2 (inositol monophosphatase 2) | 1 | 68.9 | 35.7 | inactive
Impa2 (inositol monophosphatase 2) | 2 | 114 | 84.8 | inactive
Impa2 (inositol monophosphatase 2) | 3 | 125 | 73.4 | active
Nsl1 (NSL1, MIS12 kinetochore complex component) | 1 | 51.7 | 70.4 | inactive
Nsl1 (NSL1, MIS12 kinetochore complex component) | 2 | 44.7 | 47.3 | inactive
Nsl1 (NSL1, MIS12 kinetochore complex component) | 3 | 72.8 | 55.2 | inactive
Neurl4 (neuralized E3 ubiquitin protein ligase 4) | 1 | 77.5 | 66.9 | inactive
Neurl4 (neuralized E3 ubiquitin protein ligase 4) | 2 | 47.1 | 59.4 | inactive
Neurl4 (neuralized E3 ubiquitin protein ligase 4) | 3 | 48 | 51.5 | inactive
Map2 (microtubule-associated protein 2) | 1 | 88.6 | 86.3 | inactive
Map2 (microtubule-associated protein 2) | 2 | 48.6 | 53.8 | inactive
Pcsk9 (proprotein convertase subtilisin/kexin type 9) | 1 | 129 | 82.4 | active
Pcsk9 (proprotein convertase subtilisin/kexin type 9) | 2 | 97.2 | 55.9 | inactive
Pcsk9 (proprotein convertase subtilisin/kexin type 9) | 3 | 56.8 | 55.3 | inactive
Ets1 (Ets proto-oncogene 1, transcription factor) | 1 | 76.2 | 112 | inactive
Ets1 (Ets proto-oncogene 1, transcription factor) | 2 | 69 | 59.6 | inactive
Ets1 (Ets proto-oncogene 1, transcription factor) | 3 | 52.7 | 70.8 | inactive
Zfp82 (zinc finger protein 82) | 1 | 49 | 60.8 | inactive
Zfp82 (zinc finger protein 82) | 2 | 70.6 | 73.2 | inactive
Zfp82 (zinc finger protein 82) | 3 | 93.2 | 93.2 | inactive
Cyp3a13 (cytochrome P450, family 3, subfamily a, polypeptide 13) | 1 | 63.9 | 60.1 | inactive
Cyp3a13 (cytochrome P450, family 3, subfamily a, polypeptide 13) | 2 | 29.8 | 38 | inactive
Cyp3a13 (cytochrome P450, family 3, subfamily a, polypeptide 13) | 3 | 46.8 | 48 | inactive
Cilk1 (ciliogenesis associated kinase 1) | 1 | 145 | 113 | active
Cilk1 (ciliogenesis associated kinase 1) | 2 | 90.2 | 87.4 | inactive
Cilk1 (ciliogenesis associated kinase 1) | 3 | 97.2 | 74.8 | inactive
Dusp1 (dual specificity phosphatase 1) | 1 | 58.6 | 68.6 | inactive
Dusp1 (dual specificity phosphatase 1) | 2 | 101 | 84.2 | inactive
Uox (urate oxidase) | 1 | 146 | 104 | active
Uox (urate oxidase) | 2 | 85.9 | 63.1 | inactive
Uox (urate oxidase) | 3 | 59.1 | 64.2 | inactive
Ccin (calicin) | 1 | 78.4 | 65 | inactive
Ccin (calicin) | 2 | 79.9 | 80.1 | inactive
Ppil1 (peptidylprolyl isomerase (cyclophilin)-like 1) | 1 | 75.4 | 97.2 | inactive
Ppil1 (peptidylprolyl isomerase (cyclophilin)-like 1) | 2 | 28.2 | 36.5 | inactive
Ppil1 (peptidylprolyl isomerase (cyclophilin)-like 1) | 3 | 63.7 | 69.8 | inactive
Stxbp2 (syntaxin binding protein 2) | 1 | 150 | 87.6 | active
Stxbp2 (syntaxin binding protein 2) | 2 | 69.3 | 61.2 | inactive
Stxbp2 (syntaxin binding protein 2) | 3 | 60.2 | 72.9 | inactive
D3Ertd751e (DNA segment, Chr 3, ERATO Doi 751, expressed) | 1 | 95.8 | 76.6 | inactive
D3Ertd751e (DNA segment, Chr 3, ERATO Doi 751, expressed) | 2 | 79.8 | 66.1 | inactive
D3Ertd751e (DNA segment, Chr 3, ERATO Doi 751, expressed) | 3 | 85.6 | 90.8 | inactive

A stretch of the results above:
Target gene | reagent | GFP, % of control | viability (ATP), % of control | outcome
Ndufc1 (NADH:ubiquinone oxidoreductase subunit C1) | 1 | 116 | 95.3 | inactive
Ndufc1 (NADH:ubiquinone oxidoreductase subunit C1) | 2 | 159 | 55.7 | active
Ndufc1 (NADH:ubiquinone oxidoreductase subunit C1) | 3 | 104 | 71 | inactive
Rbms1 (RNA binding motif, single stranded interacting protein 1) | 1 | 108 | 69.8 | inactive
Rbms1 (RNA binding motif, single stranded interacting protein 1) | 2 | 71.4 | 67.8 | inactive
Rbms1 (RNA binding motif, single stranded interacting protein 1) | 3 | 42.9 | 65.1 | inactive
Arhgap30 (Rho GTPase activating protein 30) | 1 | 62.9 | 99 | inactive
Arhgap30 (Rho GTPase activating protein 30) | 2 | 70.5 | 61 | inactive
Arhgap30 (Rho GTPase activating protein 30) | 3 | 30.2 | 37.5 | inactive
